# Results: PubChem BioAssay AID1671190 (National Center for Advancing Translational Sciences (NCATS), 2021)
# The chains behind the UniProt entries cited, without tags or fusion partners. Where a name states a change or a piece, a line headed by the entry shows the natural chain unless it says otherwise.
# UniProt P18054: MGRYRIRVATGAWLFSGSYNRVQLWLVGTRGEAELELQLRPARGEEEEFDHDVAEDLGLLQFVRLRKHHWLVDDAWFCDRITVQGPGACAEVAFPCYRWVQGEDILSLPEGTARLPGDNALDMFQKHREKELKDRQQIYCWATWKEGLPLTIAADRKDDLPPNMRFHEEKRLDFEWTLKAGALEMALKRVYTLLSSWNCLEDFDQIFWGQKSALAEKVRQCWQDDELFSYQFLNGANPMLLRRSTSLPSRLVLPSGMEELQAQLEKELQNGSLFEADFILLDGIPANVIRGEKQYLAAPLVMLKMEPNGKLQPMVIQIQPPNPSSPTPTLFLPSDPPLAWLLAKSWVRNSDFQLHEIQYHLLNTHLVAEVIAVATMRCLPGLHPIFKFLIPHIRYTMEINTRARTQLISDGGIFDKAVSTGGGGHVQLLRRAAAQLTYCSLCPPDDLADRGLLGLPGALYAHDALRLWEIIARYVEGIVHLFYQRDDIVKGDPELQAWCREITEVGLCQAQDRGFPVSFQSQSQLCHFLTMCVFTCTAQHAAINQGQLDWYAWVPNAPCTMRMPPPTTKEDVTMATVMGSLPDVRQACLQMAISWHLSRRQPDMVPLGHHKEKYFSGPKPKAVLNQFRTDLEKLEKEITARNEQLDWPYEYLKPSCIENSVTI
# “And” between values parts separate entries of the source, which are not always exact repeats. Identical values can stand only once. The whole screen tested about 580,000 compounds, of which about 6,100 (1.1%) were called active. The shares of active, inactive and inconclusive entries below differ from those in the screen. Calls come from the whole dose curve; as a rule, active = well fitted inhibition curve with a large enough effect; inconclusive = small, poorly fitted or top-dose-only effect, or another doubt; inactive = no such curve, though single readings can be large or run the other way. Potencies beside an inconclusive call are fits to weak or partial responses and may not hold up.
# Molecular target: Polyunsaturated fatty acid lipoxygenase ALOX12 (Homo sapiens) (UniProt P18054)
# Assay: Primary qHTS assay for inhibitors of human arachidonate 12S-lipoxygenase (ALOX12): Round 2
# Settings: purified 12hLO, xylenol orange hydroperoxide absorbance; activity change, negative = inhibition: at 108 µM (top of the series) unless noted
# Summary of the method: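 Hydroperoxide product was detected by ferrous iron/xylenol orange as the 573 to 405 nm absorbance ratio. Arachidonic acid at 40 uM (final) was turned over for 30 min at room temperature by 150 nM human 12hLO, pH 7.0 Hepes buffer, after 15 min compound preincubation.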
# % is set by controls: 0 for no effect and ±100 for the full control effect; potency is the fitted concentration of half-maximal effect.
Structure (SMILES),Potency,"activity change, negative = inhibition"
NC(CCc1ccccc1)c1csc(NC(=O)Nc2cccc(Cl)c2)n1 (centres undefined),"inconclusive: 44.7 µM [inhibitor, partial curve, poor fit]",
Cc1cccc2sc(NNC(=O)c3ccc(S(=O)(=O)N4CC(C)CC(C)C4)cc3)nc12 (centres undefined),"inconclusive: 17.8 µM [inhibitor, partial curve, poor fit]",
CC(Oc1ccc(Cl)cc1Cl)C(=O)NC(c1ccccc1)c1ccccc1 (centres undefined),"inconclusive: 44.7 µM [inhibitor, partial curve, poor fit]",
CC(NC(=O)c1cccnc1)C(=O)O (centres undefined),,inactive: 0.633%
Cc1ccsc1CNC(=O)Cc1ccc(Cl)c(Cl)c1,,inactive: -25.5%
N#Cc1nc(-c2ccc(F)cc2)oc1N1CCN(Cc2ccccc2)CC1,"inconclusive: 39.8 µM [inhibitor, partial curve, poor fit]",
COc1ccccc1CNC(=O)CCC(=O)N1CC2CCCN2c2ccccc21 (centres undefined),"inconclusive: 112 µM [inhibitor, single point]",
CCC(CC)n1c(COc2ccccc2Cl)nnc1SCC1CC1(Cl)Cl (centres undefined),"inconclusive: 44.7 µM [inhibitor, partial curve, poor fit]",
CCn1cc(C(=O)NCc2ccco2)c(=O)c2ccc(C)nc21,"inconclusive: 112 µM [inhibitor, single point]",
COCCCNc1nccc(C2(c3ccccc3Cl)CCNCC2)n1,"inconclusive: 28.2 µM [inhibitor, full curve]",
CCC(=O)NC(=S)Nc1ccc(NC(=O)COc2ccc(Cl)cc2Cl)cc1,"inconclusive: 44.7 µM [inhibitor, partial curve, poor fit]",
COc1ccc(-c2nc(CSCC(=O)NCc3ccc4c(c3)OCO4)c(C)o2)cc1OC,"inconclusive: 31.6 µM [inhibitor, partial curve]",
Cc1ccc(S(=O)(=O)/C(C#N)=C\c2ccc(F)cc2)cc1,"inconclusive: 8.91 µM [inhibitor, partial curve, poor fit]",
CC(=O)/C(N=Nc1cc(C)ccc1O)=C(\C)O,"inconclusive: 50.1 µM [inhibitor, partial curve, poor fit]",
Cc1ccc(C)c(OCC(=O)NC(Cc2c[nH]c3ccccc23)C(=O)O)c1 (centres undefined),"inconclusive: 79.4 µM [inhibitor, partial curve, poor fit]",
CCC(C)(C)C1CCc2c(sc(NC(=O)CC(C)C)c2C#N)C1 (centres undefined),,inactive: -15.3%
O=C(O)CCCC(=O)N1Cc2ccccc2CC2(CCCN2Cc2ccccc2)C1 (centres undefined),"inconclusive: 50.1 µM [inhibitor, partial curve]",
O=C(CN1CCOCC1)Nc1ccc2c(c1)OCCO2,"inconclusive: 0.562 µM [inhibitor, full curve]",
Cc1ccc2nc(-c3ccc(NC(=O)CNC4CC4)cc3)sc2c1,,inactive: -16%
O=C(O)CCC(=O)OCCCc1ccccc1,,inactive: 3.18%
Cc1ccc(CNC(=O)c2cc3c(=O)n4ccccc4nc3n(Cc3ccco3)c2=N)cc1,"inconclusive: 39.8 µM [inhibitor, partial curve, poor fit]",
CC(C)(C)c1ccccc1NC(=O)Nc1nc(C(N)Cc2ccc(F)cc2)cs1 (centres undefined),"inconclusive: 79.4 µM [inhibitor, partial curve, poor fit]",
Cc1ccc(Nc2nc(-c3sc(NC(=O)c4ccccc4)nc3C)cs2)cc1,"inconclusive: 17.8 µM [inhibitor, partial curve, poor fit]",

Structure (SMILES),Potency,"activity change, negative = inhibition"
Oc1ccc(Cl)cc1C=Nc1ccc(Cl)cc1C(F)(F)F,"inconclusive: 50.1 µM [inhibitor, partial curve, poor fit]",
CCc1ccc(O)c(CNCCNCc2cc(CC)ccc2O)c1,"inconclusive: 50.1 µM [inhibitor, partial curve, poor fit]",
COc1cccc(C(=O)O/N=C(\N)c2ccc(C)cc2)c1,"inconclusive: 126 µM [inhibitor, single point]",
O=C(O)CCNS(=O)(=O)c1ccc(Cl)c(C(=O)O)c1,"inconclusive: 89.1 µM [inhibitor, single point]",
Cc1nc(N2CCOCC2)c2c(C(=O)Nc3cccc(C(F)(F)F)c3)c(C)oc2n1,"inconclusive: 70.8 µM [inhibitor, partial curve, poor fit]",
CC(C)Oc1ccccc1C(C)NC(=O)Cc1c[nH]c2ccccc12 (centres undefined),,inactive: 3.02%
Cc1ccc(S(=O)(=O)CCNC(=O)Cc2ccc(Cl)cc2)cc1,"inconclusive: 112 µM [inhibitor, partial curve, poor fit]",
Nc1ccc(-c2nc3ccccc3[nH]2)cc1,,inactive: 5.58%
CN(C)c1nc(Nc2ccc(Cl)c(Cl)c2)nc(N(C)C)n1,"inconclusive: 126 µM [inhibitor, single point]",
Cc1cn2c(=O)cc(COC(=O)CSc3ccccc3)nc2s1,,inactive: 30.4%
CCCCCCn1c(SCCCCC)nc2c1c(=O)[nH]c(=O)n2C,,inactive: -7.75%
O=C(NCCCN1CCCC1=O)c1ccc2c(=O)n(Cc3ccco3)c(=S)[nH]c2c1,,inactive: -26.4%
Cc1nnc(SCc2ccccc2)n(N)c1=O,,inactive: 2.9%
Cn1nnnc1Sc1ncnc2scc(-c3ccc(F)cc3)c12,,inactive: 3.9%
CCCCn1c(CN2CCOCC2)nc2c1c(=O)[nH]c(=O)n2C,"inconclusive: 39.8 µM [inhibitor, single point]",
O=C(NCCc1ccncc1)C1CN(C(=O)Cc2ccc(F)cc2)CC12CCOCC2 (centres undefined),"inconclusive: 22.4 µM [inhibitor, full curve]",
COc1cc(Cl)cc(C2NC(=S)NC(c3ccccc3)=C2C(C)=O)c1OCC(=O)O (centres undefined),"inconclusive: 56.2 µM [inhibitor, partial curve, poor fit]",
C(=N\n1cnnc1)/c1cn(Cc2ccccc2)c2ccccc12,,inactive: 19.8%
CN(C)c1ccc(C(c2nnnn2C(C)(C)C)N2CCN(C(=O)c3ccco3)CC2)cc1 (centres undefined),,inactive: 109%
O=c1c2ccccc2nc(COc2ccccc2)n1/N=C/c1ccc(O)c(O)c1,active: 3.55 µM,
O=C(O)/C=C/c1ccc([N+](=O)[O-])o1,,inactive: -24.1%
Cc1cccc(C)c1NC(=O)c1sc(-n2nc(C)c(Cl)c2C)nc1C,"inconclusive: 35.5 µM [inhibitor, single point]",
COc1ccc2c(c1OC)C(=O)O[C@@H]2[C@H]1c2c(cc3c(c2OC)OCO3)CCN1C,"inactive and inconclusive: 28.2 µM [inhibitor, single point]",

Structure (SMILES),Potency,"activity change, negative = inhibition"
CN(C)CC(C(=O)c1ccccc1)c1ccccc1 (centres undefined),,inactive: -8.92%
O=C(CSc1ccc(-c2ccccn2)nn1)NCc1ccccc1,"inconclusive: 100 µM [inhibitor, partial curve, poor fit]",
CNC(=O)[C@@H](C1CC1)N1CCC[C@H]1C(=O)N1CCCCC1,"inconclusive: 10 µM [inhibitor, full curve]",
Cc1cccc(NS(=O)(=O)c2ccc(Br)s2)n1,"inconclusive: 15.8 µM [inhibitor, full curve, poor fit]",
COc1cccc(-c2ncc3c(n2)OCCN(Cc2ccc(F)cc2F)C3=O)c1,"inconclusive: 35.5 µM [inhibitor, full curve]",
CCCCC1=CC2=C(c3ccco3)C(=O)C(C)(OC(=O)c3ccc(OC)cc3)C(=O)C2=CN1CC(C)C (centres undefined),"inconclusive: 44.7 µM [inhibitor, partial curve, poor fit]",
COc1cccc(O)c1CN1CCCC(C(=O)c2cccc(C(F)(F)F)c2)C1 (centres undefined),,inactive: -6.85%
O=C(CSc1ccccn1)Nc1cccc([N+](=O)[O-])c1,,inactive: -12.6%
CCCNC(=O)COc1coc(CN2CCN(C(=O)c3ccco3)CC2)cc1=O,"inconclusive: 7.08 µM [inhibitor, full curve, poor fit]",
Cc1cc(C)cc(NC(=O)Nc2ccc3nc(N4CCOCC4)cc(C)c3c2)c1,"inconclusive: 31.6 µM [inhibitor, partial curve, poor fit]",
CSc1nc2sccc2c(=O)[nH]1,,inactive: 0.955%
COc1ccc(C(=O)N2CCN(Cc3ccccc3C)CC2)cc1OC,"inconclusive: 0.631 µM [inhibitor, full curve, poor fit]",
COc1cc(CNCCO)cc(Cl)c1OCc1ccc(Cl)cc1Cl,"inconclusive: 44.7 µM [inhibitor, partial curve, poor fit]",
Cc1ccc(C)c(Nc2nnc(-n3nc(C)cc3C)c3ccccc23)c1,"inconclusive: 126 µM [inhibitor, partial curve, poor fit]",
CC1CC(C)(C)NC(=S)N1CCCC(=O)Nc1ccc(Br)cc1 (centres undefined),"inconclusive: 44.7 µM [inhibitor, partial curve, poor fit]",
CCN(CC)c1ccc(NC(=O)c2cccc(C)c2)cc1S(=O)(=O)Nc1ccccc1OC,"inconclusive: 50.1 µM [inhibitor, partial curve, poor fit]",
Nc1cccc(OCC2CCCO2)c1 (centres undefined),active: 7.08 µM,
CCOc1ccccc1OCCCCN1CCCC1,"inconclusive: 0.224 µM [inhibitor, full curve, poor fit]",
COc1cc(C2c3c([nH]c(=O)[nH]c3=O)Nc3ccc4ccccc4c32)ccc1O (centres undefined),"inconclusive: 50.1 µM [inhibitor, partial curve, poor fit]",
O=C(Nc1ccccc1)N1CCN(c2ccc(Cl)nn2)C(=O)C1,,inactive: 14.5% [at 6.33 µM]
CCCCSc1nc2c([nH]1)c(=O)n(C)c(=S)n2C,"inconclusive: 8.91 µM [inhibitor, partial curve, poor fit]",
Cc1oc(-c2ccc(Cl)cc2)nc1CS(=O)CC(=O)NC1CCCCC1 (centres undefined),,inactive: -15.8%
COc1ccc(C(C)NC(=O)C2CCN(c3cc(C(F)(F)F)ncn3)CC2)cc1 (centres undefined),"inconclusive: 50.1 µM [inhibitor, partial curve]",
